Compound in the assay: Nc1nc2c(ncn2[C@@H]2O[C@H](COP(=O)(O)OP(=O)(O)OP(=O)(O)O)[C@@H](O)[C@H]2O)c(=O)[nH]1 [guanosine triphosphate]
The experiment in a line: NP40-soluble protein abundance relative to vehicle (solubility fold change) (ratio); higher = more soluble protein in presence of GTP. An outline of the steps:
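Jurkat crude lysate prepared with a Dounce homogeniser was treated at eight concentrations spanning 0.1 to 10 mM, 10 min at room temperature then 3 min at 37 °C. Solubilisation with 0.8% NP40 and benzonase and ultracentrifugation preceded TMT labelling of the supernatant for LC-MS/MS. Fold change against the detergent-processed vehicle was determined per replicate from vsn-normalised intensities, across three independent experiments.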

The chains behind the UniProt entries cited, without tags or fusion partners. Where a name states a change or a piece, a line headed by the entry shows the natural chain unless it says otherwise.
UniProt Q9BW62: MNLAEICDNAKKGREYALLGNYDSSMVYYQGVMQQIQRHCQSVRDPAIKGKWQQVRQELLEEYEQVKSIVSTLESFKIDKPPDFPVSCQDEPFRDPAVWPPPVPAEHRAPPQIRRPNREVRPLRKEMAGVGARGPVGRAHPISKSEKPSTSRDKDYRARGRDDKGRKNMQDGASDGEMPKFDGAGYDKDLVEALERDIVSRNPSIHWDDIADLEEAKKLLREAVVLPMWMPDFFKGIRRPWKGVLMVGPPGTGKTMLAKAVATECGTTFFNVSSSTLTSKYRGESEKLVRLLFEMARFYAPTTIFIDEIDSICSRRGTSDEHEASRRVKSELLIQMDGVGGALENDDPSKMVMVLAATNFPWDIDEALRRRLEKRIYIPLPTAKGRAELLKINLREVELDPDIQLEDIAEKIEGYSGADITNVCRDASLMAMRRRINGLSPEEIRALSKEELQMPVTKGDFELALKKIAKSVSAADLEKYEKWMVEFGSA
UniProt Q99496: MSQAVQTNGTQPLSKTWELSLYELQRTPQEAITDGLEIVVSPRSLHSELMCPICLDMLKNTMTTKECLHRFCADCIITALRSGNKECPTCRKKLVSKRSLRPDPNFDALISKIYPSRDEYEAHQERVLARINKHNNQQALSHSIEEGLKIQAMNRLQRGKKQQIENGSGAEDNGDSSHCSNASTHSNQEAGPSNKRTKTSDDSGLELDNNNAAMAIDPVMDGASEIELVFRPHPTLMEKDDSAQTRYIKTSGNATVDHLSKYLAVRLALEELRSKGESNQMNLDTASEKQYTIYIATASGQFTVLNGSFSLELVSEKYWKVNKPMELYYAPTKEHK
UniProt Q9BX70: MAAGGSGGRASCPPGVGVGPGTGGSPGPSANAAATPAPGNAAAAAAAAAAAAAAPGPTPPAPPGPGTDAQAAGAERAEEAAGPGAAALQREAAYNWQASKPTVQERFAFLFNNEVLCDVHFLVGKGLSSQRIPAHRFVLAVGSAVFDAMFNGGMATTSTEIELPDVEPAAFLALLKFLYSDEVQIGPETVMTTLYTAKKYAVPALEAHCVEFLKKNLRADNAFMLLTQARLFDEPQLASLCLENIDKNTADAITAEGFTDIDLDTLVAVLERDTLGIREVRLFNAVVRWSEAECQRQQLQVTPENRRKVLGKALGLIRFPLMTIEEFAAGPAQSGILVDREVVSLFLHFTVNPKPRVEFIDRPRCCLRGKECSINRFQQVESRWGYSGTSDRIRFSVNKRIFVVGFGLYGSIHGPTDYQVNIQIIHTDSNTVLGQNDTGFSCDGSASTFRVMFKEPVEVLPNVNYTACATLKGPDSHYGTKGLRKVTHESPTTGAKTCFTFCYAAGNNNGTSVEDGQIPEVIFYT
UniProt Q96MG7: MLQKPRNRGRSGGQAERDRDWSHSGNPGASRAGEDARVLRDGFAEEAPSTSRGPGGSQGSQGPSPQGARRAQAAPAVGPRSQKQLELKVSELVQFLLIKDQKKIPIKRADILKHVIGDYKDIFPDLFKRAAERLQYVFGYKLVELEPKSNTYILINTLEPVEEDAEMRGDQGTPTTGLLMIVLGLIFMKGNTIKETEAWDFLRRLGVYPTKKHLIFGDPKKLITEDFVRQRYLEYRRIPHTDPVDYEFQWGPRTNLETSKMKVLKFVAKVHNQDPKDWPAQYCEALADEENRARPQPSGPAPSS
UniProt Q9BWF3: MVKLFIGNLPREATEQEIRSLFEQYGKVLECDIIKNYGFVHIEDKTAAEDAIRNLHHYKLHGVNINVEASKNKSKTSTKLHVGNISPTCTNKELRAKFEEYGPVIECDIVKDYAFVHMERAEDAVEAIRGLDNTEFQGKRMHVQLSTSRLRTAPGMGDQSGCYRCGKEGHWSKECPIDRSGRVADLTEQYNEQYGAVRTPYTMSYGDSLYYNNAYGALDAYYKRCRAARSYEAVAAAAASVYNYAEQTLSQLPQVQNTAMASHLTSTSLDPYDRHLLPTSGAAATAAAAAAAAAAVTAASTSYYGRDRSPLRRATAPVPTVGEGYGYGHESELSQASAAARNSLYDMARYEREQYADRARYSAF
UniProt Q96N16: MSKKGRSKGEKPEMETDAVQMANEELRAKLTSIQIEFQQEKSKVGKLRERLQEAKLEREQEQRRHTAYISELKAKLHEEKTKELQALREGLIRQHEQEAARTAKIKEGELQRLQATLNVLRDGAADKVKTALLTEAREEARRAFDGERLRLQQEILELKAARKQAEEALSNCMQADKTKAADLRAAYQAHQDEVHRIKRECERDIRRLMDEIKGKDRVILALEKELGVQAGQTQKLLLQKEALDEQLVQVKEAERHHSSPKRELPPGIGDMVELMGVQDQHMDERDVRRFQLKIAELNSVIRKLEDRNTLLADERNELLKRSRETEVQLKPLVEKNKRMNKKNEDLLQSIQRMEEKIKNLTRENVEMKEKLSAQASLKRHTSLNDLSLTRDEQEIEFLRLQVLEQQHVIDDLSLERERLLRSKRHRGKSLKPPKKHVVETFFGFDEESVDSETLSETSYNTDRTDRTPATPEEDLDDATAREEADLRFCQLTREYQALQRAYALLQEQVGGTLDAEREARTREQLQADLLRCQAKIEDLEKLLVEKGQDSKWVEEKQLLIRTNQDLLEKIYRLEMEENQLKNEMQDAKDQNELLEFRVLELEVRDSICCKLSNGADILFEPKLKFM
UniProt Q9BPW8: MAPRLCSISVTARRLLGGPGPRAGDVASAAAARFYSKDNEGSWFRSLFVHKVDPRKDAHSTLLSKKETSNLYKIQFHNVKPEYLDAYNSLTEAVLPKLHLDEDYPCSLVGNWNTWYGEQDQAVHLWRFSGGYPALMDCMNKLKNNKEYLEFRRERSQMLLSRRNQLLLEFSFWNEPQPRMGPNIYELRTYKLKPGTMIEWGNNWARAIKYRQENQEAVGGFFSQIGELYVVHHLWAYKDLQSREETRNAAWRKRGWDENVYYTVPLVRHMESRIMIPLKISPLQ
UniProt Q96RS6: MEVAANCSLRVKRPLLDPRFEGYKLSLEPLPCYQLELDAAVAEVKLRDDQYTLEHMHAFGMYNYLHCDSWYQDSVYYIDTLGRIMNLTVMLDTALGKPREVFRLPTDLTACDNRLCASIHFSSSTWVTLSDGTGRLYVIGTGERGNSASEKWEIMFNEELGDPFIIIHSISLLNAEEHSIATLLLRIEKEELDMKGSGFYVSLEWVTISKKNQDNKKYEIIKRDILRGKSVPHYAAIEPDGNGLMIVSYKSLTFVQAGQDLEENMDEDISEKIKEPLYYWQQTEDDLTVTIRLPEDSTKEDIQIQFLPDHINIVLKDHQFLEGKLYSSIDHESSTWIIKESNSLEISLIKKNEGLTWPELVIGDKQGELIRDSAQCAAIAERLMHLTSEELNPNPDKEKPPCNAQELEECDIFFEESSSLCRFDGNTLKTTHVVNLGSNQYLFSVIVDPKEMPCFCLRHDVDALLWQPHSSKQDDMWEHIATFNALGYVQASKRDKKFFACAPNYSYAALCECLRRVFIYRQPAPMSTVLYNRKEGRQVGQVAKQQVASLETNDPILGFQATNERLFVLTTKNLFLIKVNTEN
UniProt Q9BWS9: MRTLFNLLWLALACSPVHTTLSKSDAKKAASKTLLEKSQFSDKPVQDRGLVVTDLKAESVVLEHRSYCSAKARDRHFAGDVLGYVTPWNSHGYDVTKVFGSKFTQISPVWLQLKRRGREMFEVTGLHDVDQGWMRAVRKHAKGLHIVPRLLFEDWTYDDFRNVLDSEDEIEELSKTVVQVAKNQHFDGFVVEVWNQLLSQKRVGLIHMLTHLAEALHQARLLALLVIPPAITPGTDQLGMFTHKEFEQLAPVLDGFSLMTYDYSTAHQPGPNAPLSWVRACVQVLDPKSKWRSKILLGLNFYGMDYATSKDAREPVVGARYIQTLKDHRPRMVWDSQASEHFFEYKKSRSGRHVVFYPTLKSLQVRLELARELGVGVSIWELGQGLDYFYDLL
UniProt Q9BTZ2: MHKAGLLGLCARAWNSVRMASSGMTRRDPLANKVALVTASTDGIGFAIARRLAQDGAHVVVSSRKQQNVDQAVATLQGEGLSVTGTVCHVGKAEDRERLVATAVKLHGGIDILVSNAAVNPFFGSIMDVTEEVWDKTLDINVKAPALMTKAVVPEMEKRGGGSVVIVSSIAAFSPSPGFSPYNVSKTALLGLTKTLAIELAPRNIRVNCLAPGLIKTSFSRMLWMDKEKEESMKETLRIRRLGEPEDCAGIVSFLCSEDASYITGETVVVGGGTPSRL
UniProt Q9BQ70: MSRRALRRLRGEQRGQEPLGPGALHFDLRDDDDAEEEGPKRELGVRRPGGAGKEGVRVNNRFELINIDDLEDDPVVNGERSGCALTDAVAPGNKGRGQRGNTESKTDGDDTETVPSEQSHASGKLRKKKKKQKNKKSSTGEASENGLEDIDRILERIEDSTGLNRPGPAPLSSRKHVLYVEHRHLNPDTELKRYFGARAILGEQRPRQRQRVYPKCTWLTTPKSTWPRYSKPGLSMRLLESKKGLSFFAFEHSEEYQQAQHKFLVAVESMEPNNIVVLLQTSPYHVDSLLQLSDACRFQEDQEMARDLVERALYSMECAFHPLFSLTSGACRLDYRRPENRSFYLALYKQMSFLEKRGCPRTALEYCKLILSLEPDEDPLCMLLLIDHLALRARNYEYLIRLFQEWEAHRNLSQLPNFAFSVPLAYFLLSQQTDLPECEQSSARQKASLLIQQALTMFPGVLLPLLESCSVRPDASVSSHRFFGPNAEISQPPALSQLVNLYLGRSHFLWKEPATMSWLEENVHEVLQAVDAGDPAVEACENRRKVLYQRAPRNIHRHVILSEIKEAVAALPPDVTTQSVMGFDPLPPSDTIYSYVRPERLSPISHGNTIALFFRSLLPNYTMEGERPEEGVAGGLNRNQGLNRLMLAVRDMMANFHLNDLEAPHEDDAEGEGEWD
UniProt Q99633: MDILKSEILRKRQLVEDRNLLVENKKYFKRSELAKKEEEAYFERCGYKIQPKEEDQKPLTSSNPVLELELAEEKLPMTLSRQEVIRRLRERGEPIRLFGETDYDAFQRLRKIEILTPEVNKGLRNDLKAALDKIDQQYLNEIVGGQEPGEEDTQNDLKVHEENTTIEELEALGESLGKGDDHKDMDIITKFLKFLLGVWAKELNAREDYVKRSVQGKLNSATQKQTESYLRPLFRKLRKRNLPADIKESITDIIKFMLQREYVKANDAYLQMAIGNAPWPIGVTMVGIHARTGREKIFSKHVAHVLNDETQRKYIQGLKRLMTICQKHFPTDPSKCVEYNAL
UniProt Q99961: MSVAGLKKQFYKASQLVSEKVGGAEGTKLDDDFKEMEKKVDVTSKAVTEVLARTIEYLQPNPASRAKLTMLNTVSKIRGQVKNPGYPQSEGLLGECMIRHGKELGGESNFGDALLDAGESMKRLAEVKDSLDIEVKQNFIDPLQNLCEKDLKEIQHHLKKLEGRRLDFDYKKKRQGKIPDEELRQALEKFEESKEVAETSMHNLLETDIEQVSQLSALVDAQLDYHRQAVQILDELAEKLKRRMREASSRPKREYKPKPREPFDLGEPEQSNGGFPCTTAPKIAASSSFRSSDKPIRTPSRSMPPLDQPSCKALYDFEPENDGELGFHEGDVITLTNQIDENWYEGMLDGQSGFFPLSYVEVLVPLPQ
UniProt Q9BPZ3: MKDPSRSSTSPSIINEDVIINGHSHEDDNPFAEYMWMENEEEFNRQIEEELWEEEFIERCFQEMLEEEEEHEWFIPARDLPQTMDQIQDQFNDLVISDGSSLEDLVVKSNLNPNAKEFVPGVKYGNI
UniProt Q99623, whole entry: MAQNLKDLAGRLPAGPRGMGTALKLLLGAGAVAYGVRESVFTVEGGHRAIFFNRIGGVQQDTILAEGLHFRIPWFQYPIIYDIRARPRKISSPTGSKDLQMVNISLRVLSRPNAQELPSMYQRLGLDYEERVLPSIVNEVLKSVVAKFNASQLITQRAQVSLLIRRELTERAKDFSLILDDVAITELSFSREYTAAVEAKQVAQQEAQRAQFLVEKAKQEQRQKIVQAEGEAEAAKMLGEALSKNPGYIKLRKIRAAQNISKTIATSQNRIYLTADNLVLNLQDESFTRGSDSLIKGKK

± gives the standard deviation of the averaged measurements. This is one part of the list.

The source of these data is the supplement of paper PMC6411743.

On to KATNAL1 (UniProt Q9BW62), for which the NP40-soluble protein abundance is, setting by setting: (concentration: 0.1mM) 0.94 ± 0.12; (concentration: 0.5mM) 0.944 ± 0.078; (concentration: 1mM) 0.918 ± 0.025; (concentration: 2mM) 0.864 ± 0.041; (concentration: 4mM) 0.913 ± 0.18; (concentration: 6mM) 0.884 ± 0.15. The NP40-soluble protein abundance (concentration: 8mM) stood at 0.925 ± 0.017 and the NP40-soluble protein abundance (concentration: 10mM) was found to be 0.835 ± 0.028.
For the target RNF2 (UniProt Q99496), the NP40-soluble protein abundance runs as follows: (concentration: 0.1mM) 0.949 ± 0.03; (concentration: 0.5mM) 1 ± 0.068; (concentration: 1mM) 1.04 ± 0.092; (concentration: 2mM) 1.05 ± 0.054; (concentration: 4mM) 1.11 ± 0.09; (concentration: 6mM) 1.2 ± 0.051. Further, the NP40-soluble protein abundance was determined as 1.21 ± 0.055 (concentration: 8mM) and 1.21 ± 0.13 (concentration: 10mM).
Take BTBD2 (UniProt Q9BX70): the NP40-soluble protein abundance worked out at 1.09 ± 0.085 (concentration: 0.1mM); 1.05 ± 0.062 (concentration: 0.5mM); 1.01 ± 0.011 (concentration: 1mM); 1.11 ± 0.063 (concentration: 2mM); 1.09 ± 0.044 (concentration: 4mM); 1.03 ± 0.084 (concentration: 6mM). The NP40-soluble protein abundance is, setting by setting: (concentration: 8mM) 1.07 ± 0.15; (concentration: 10mM) 1.01 ± 0.026.
Consider UniProt Q96MG7, for which the NP40-soluble protein abundance runs as follows: (concentration: 0.1mM) 0.98 ± 0.11; (concentration: 0.5mM) 0.958 ± 0.048; (concentration: 1mM) 1.12 ± 0.089; (concentration: 2mM) 1.13 ± 0.053; (concentration: 4mM) 1.11 ± 0.12; (concentration: 6mM) 1.1 ± 0.05. Moreover, the NP40-soluble protein abundance by setting is: (concentration: 8mM) 1.08 ± 0.13; (concentration: 10mM) 1.17 ± 0.21.
Turning to RBM4 (UniProt Q9BWF3), the NP40-soluble protein abundance by setting is: (concentration: 0.1mM) 1.04 ± 0.056; (concentration: 0.5mM) 1.06 ± 0.1; (concentration: 1mM) 1.07 ± 0.085; (concentration: 2mM) 1.02 ± 0.058; (concentration: 4mM) 1.01 ± 0.088; (concentration: 6mM) 1.06 ± 0.14. Also, the NP40-soluble protein abundance is 1.03 ± 0.063 (concentration: 8mM) and 0.972 ± 0.086 (concentration: 10mM).
On to JAKMIP1 (UniProt Q96N16), for which the NP40-soluble protein abundance runs as follows: (concentration: 0.1mM) 1.04 ± 0.034; (concentration: 0.5mM) 1.11 ± 0.066; (concentration: 1mM) 1.22 ± 0.078; (concentration: 2mM) 1.26 ± 0.14; (concentration: 4mM) 1.34 ± 0.18; (concentration: 6mM) 1.37 ± 0.14. For the same target, the NP40-soluble protein abundance is 1.37 ± 0.15 (concentration: 8mM) and 1.39 ± 0.21 (concentration: 10mM).
For the target NIPSNAP1 (UniProt Q9BPW8), the NP40-soluble protein abundance is 1.02 ± 0.021 (concentration: 0.1mM); 1.06 ± 0.086 (concentration: 0.5mM); 0.901 ± 0.038 (concentration: 1mM); 0.919 ± 0.059 (concentration: 2mM); 0.887 ± 0.043 (concentration: 4mM); 0.874 ± 0.044 (concentration: 6mM). The NP40-soluble protein abundance is, setting by setting: (concentration: 8mM) 0.839 ± 0.019; (concentration: 10mM) 0.818 ± 0.047.
Take UniProt Q96RS6 and related entries: the NP40-soluble protein abundance came out at 1.12 ± 0.12 (concentration: 0.1mM); 1.11 ± 0.14 (concentration: 0.5mM); 1.01 ± 0.1 (concentration: 1mM); 0.999 ± 0.15 (concentration: 2mM); 1 ± 0.15 (concentration: 4mM); 0.979 ± 0.1 (concentration: 6mM). Also, the NP40-soluble protein abundance by setting is: (concentration: 8mM) 0.94 ± 0.044; (concentration: 10mM) 0.894 ± 0.11.
Regarding UniProt Q9BWS9 and related entries, the NP40-soluble protein abundance (concentration: 0.1mM) turned out to be 1.12 ± 0.048; the NP40-soluble protein abundance (concentration: 0.5mM) turned out to be 1.07 ± 0.016; the NP40-soluble protein abundance (concentration: 1mM) turned out to be 0.985 ± 0.043; the NP40-soluble protein abundance (concentration: 2mM) was 1 ± 0.072; the NP40-soluble protein abundance (concentration: 4mM) turned out to be 1.03 ± 0.057; the NP40-soluble protein abundance (concentration: 6mM) was determined as 1 ± 0.063. Further, the NP40-soluble protein abundance came out at 1.04 ± 0.051 (concentration: 8mM) and 0.947 ± 0.11 (concentration: 10mM).
In the case of DHRS4 (UniProt Q9BTZ2), the NP40-soluble protein abundance worked out at 0.986 ± 0.016 (concentration: 0.1mM); 0.968 ± 0.041 (concentration: 0.5mM); 0.889 ± 0.016 (concentration: 1mM); 0.907 ± 0.056 (concentration: 2mM); 0.905 ± 0.058 (concentration: 4mM); 0.877 ± 0.05 (concentration: 6mM). Besides, the NP40-soluble protein abundance amounted to 0.863 ± 0.059 (concentration: 8mM) and 0.828 ± 0.06 (concentration: 10mM).
TCF25 (UniProt Q9BQ70): the NP40-soluble protein abundance was 1.02 ± 0.053 (concentration: 0.1mM); 1.02 ± 0.14 (concentration: 0.5mM); 1.04 ± 0.072 (concentration: 1mM); 1.07 ± 0.15 (concentration: 2mM); 1.12 ± 0.13 (concentration: 4mM); 1.03 ± 0.057 (concentration: 6mM). For the same target, the NP40-soluble protein abundance (concentration: 8mM) came to 1.12 ± 0.19 and the NP40-soluble protein abundance (concentration: 10mM) came to 1.2 ± 0.17.
As for PRPF18 (UniProt Q99633), the NP40-soluble protein abundance (concentration: 0.1mM) amounted to 0.947 ± 0.067; the NP40-soluble protein abundance (concentration: 0.5mM) was determined as 0.931 ± 0.081; the NP40-soluble protein abundance (concentration: 1mM) was 0.949 ± 0.06; the NP40-soluble protein abundance (concentration: 2mM) turned out to be 0.987 ± 0.093; the NP40-soluble protein abundance (concentration: 4mM) is 0.995 ± 0.087; the NP40-soluble protein abundance (concentration: 6mM) amounted to 1.06 ± 0.097. The NP40-soluble protein abundance was 1.02 ± 0.14 (concentration: 8mM) and 1.16 ± 0.044 (concentration: 10mM).
Take SH3GL1 (UniProt Q99961): the NP40-soluble protein abundance runs as follows: (concentration: 0.1mM) 0.97 ± 0.018; (concentration: 0.5mM) 0.922 ± 0.017; (concentration: 1mM) 0.94 ± 0.021; (concentration: 2mM) 0.89 ± 0.064; (concentration: 4mM) 0.891 ± 0.055; (concentration: 6mM) 0.887 ± 0.037. Also, the NP40-soluble protein abundance reads like this: (concentration: 8mM) 0.893 ± 0.029; (concentration: 10mM) 0.901 ± 0.047.
Turning to PAIP2 (UniProt Q9BPZ3), the NP40-soluble protein abundance (concentration: 0.1mM) came out at 0.963 ± 0.037; the NP40-soluble protein abundance (concentration: 0.5mM) turned out to be 0.958 ± 0.05; the NP40-soluble protein abundance (concentration: 1mM) was found to be 0.938 ± 0.043; the NP40-soluble protein abundance (concentration: 2mM) was found to be 0.88 ± 0.053; the NP40-soluble protein abundance (concentration: 4mM) turned out to be 0.907 ± 0.037; the NP40-soluble protein abundance (concentration: 6mM) stood at 0.949 ± 0.036. The NP40-soluble protein abundance reads like this: (concentration: 8mM) 1.03 ± 0.051; (concentration: 10mM) 0.99 ± 0.057.
For the target UniProt Q99623 and related entries, the NP40-soluble protein abundance amounted to 1.02 ± 0.036 (concentration: 0.1mM); 1.06 ± 0.079 (concentration: 0.5mM); 0.977 ± 0.046 (concentration: 1mM); 1.01 ± 0.12 (concentration: 2mM); 1 ± 0.092 (concentration: 4mM); 1.01 ± 0.12 (concentration: 6mM). Further, the NP40-soluble protein abundance was determined as 0.955 ± 0.059 (concentration: 8mM) and 0.946 ± 0.08 (concentration: 10mM).
